According to patent publication EP4831176A1, “BICYCLIC FUSED HETEROAROMATIC RING DERIVATIVE, AND PHARMACEUTICAL COMPOSITION AND USE THEREOF” (dated 2026):
pIC50: −log10 of the molar value. The structures given here were assigned with low confidence; some may be wrong.

Protein sequences, listed by entry. Tags and fused reporters are not part of them.
UniProt O75530, whole entry: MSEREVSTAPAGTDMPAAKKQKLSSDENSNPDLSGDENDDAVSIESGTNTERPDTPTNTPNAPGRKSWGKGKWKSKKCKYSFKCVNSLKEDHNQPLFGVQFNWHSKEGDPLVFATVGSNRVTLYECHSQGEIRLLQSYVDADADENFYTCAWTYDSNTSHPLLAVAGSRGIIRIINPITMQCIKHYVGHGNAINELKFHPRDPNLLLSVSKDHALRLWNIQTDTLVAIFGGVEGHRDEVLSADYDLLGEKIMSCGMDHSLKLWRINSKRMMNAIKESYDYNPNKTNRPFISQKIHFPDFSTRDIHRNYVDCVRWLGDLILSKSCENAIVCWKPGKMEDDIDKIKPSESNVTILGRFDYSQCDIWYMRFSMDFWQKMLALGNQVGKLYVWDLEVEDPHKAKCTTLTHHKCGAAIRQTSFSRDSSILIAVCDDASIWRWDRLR

Legend:
wsuDLCL-2 cells = assay: Proliferation inhibition of wsuDLCL-2 tumor cells, Cell Titer-Glo; details: read-out: CTG IC50, 144 hours incubation
Description: In this experiment, the Cell Titer-Glo reagent was used to quantitatively analyze the proliferation activity of wsuDLCL-2 cells to detect the inhibitory ability of the compounds on tumor cell proliferation. The specific steps were as follows: • 1. wsuDLCL-2 cells were purchased from Nanjing Cobioer (Catalog Nos. CBP60073 and CBP60629), subcultured and maintained in logarithmic growth state using RPMI-1640 complete medium (containing 10% v/v fetal bovine serum) according to the supplier's recommended conditions. […] Before cell seeding, cells were collected in a centrifuge tube, centrifuged at 250 rcf for 3 minutes, and the culture medium was discarded. The cells were resuspended in fresh complete medium, and 20 µL of the cell suspension was taken to calculate the cell concentration using a Countstar cell counter. After adjusting the density, cells were seeded into a 96-well plate at 3,000 cells/180 µL and pre-incubated in a 37°C, 5% CO2 incubator for 4 hours. • 3. The negative and positive control groups were treated with 20 µL of control solution (non-complete medium containing 2.5% v/v DMSO). Compound gradient dilutions were prepared using non-complete medium, and 20 µL of the dilutions were added to the corresponding culture wells. The final concentration of DMSO in the test was 0.25% v/v. Subsequently, the plate was incubated in a 37°C, 5% CO2 incubator for 144 hours. • 4. 150 µL of Cell Titer-Glo (CTG) reagent was added directly to the cell culture, and the plate was incubated at room temperature in the dark for 30 minutes. The luminescence value was then read on a plate reader, and the results were used to analyze the cell proliferation ratio and compound activity. • 5. The signal value of the negative control group was set as Bottom, and the signal value of the positive control group was set as Top. The compound concentration value (logarithm) was the X-axis, and the luminescence reading at the corresponding concentration was the Y-axis, with HillSlope as the slope factor. A four-parameter logistic model (4PL logistic model) was used for fitting, and the calculation method was as follows: Y = Bottom + (Top−Bottom)/(1+10^(∧)((LogIC50−X)×HillSlope)) [formula]
After fitting, the IC50 value of the compound was calculated, and the proliferation inhibitory activity of the compound was compared based on the IC50 value.

EED protein = EED protein (Homo sapiens, UniProt O75530); assay: EED protein degradation in Karpas-422 cells, In-cell western (ICW); details: 18 hours incubation
Pfeiffer cells = assay: Proliferation inhibition of Pfeiffer tumor cells, Cell Titer-Glo; details: read-out: CTG IC50, 144 hours incubation

| pIC50 (wsuDLCL-2 cells) | Dmax (EED protein) | pIC50 (Pfeiffer cells) | Compound |
| --- | --- | --- | --- |
| 6.47 | – | – | Cc1ncsc1-c1ccc([C@H](C)NC(=O)[C@@H]2C[C@@H](O)CN2C(=O)[C@@H](NC(=O)[C@H]2C[C@@H](NC(=O)c3ccc(-c4cnc(NCc5c(F)ccc6c5CCO6)n5cnnc45)cc3)C2)C(C)(C)C)cc1 |
| 6.85 | 73% | – | Cc1ncsc1-c1ccc([C@H](C)NC(=O)[C@@H]2C[C@@H](O)CN2C(=O)[C@@H](NC(=O)COc2ccc(OC3CCN(Cc4ccc(-c5cnc(NCc6c(F)ccc7c6CCO7)n6cc(C#N)nc56)cc4)CC3)cc2)C(C)(C)C)cc1 |
| 7.62 | 80% | 6.77 | Cc1ncsc1-c1ccc(CNC(=O)[C@@H]2C[C@@H](O)CN2C(=O)[C@@H](NC(=O)[C@H]2C[C@@H](NC(=O)c3ccc(-c4cnc(NCc5c(F)ccc6c5CCO6)n5cnnc45)cn3)C2)C(C)(C)C)cc1 |
| 7.85 | 81% | 6.66 | Cc1ncsc1-c1ccc([C@H](C)NC(=O)[C@@H]2C[C@@H](O)CN2C(=O)[C@@H](NC(=O)C2CN(c3ccc(-c4cnc(NCc5c(F)ccc6c5CCO6)n5cnnc45)cc3)C2)C(C)(C)C)cc1 |
| 6.47 | – | – | Cc1ncsc1-c1ccc(CNC(=O)[C@@H]2C[C@@H](O)CN2C(=O)[C@@H](NC(=O)[C@H]2C[C@@H](NC(=O)c3ccc(-c4cnc(NCc5c(F)ccc6c5CCO6)n5cnnc45)cc3)C2)C(C)(C)C)cc1 |
| 6.57 | 65% | – | Cc1ncsc1-c1ccc([C@H](C)NC(=O)[C@@H]2C[C@@H](O)CN2C(=O)[C@@H](NC(=O)[C@H]2C[C@@H](NC(=O)c3ccc(-c4cnc(NCc5c(F)ccc6c5CCO6)n5cnnc45)cn3)C2)C(C)(C)C)cc1 |
| > 7.00 | 81% | 7.52 | Cc1ncsc1-c1ccc([C@H](C)NC(=O)[C@@H]2C[C@@H](O)CN2C(=O)[C@@H](NC(=O)CCCNC(=O)c2ccc(-c3cnc(NCc4c(F)ccc5c4CCO5)n4cnc(I)c34)cn2)C(C)(C)C)cc1 |
